Reference: PubChem BioAssay AID2662 (National Center for Advancing Translational Sciences (NCATS), 2010)
Screen size: about 290,000 compounds; about 110 (0.038%) were called active. Inconclusive results, whose numbers are uncertain, are shown with a selection of clear calls. The call rests on the fitted dose curve; in most records, active means well fitted inhibition curve with a large enough effect in the polarisation, with a control signal flat (not every such curve was filed as active); inconclusive means small, poorly fitted or top-dose-only effect, or effect the other way, or a change in a side signal; inactive means no such curve, though single readings can be large or run the other way; the % refers to the polarisation. Potencies beside an inconclusive call are fits to weak or partial responses and may not hold up. A note “side channel” means that the fit belongs to a control or component signal, not to the main read-out.

Chains of the proteins cited; added tags and fusions are not shown.
UniProt Q03164, whole entry, looked up: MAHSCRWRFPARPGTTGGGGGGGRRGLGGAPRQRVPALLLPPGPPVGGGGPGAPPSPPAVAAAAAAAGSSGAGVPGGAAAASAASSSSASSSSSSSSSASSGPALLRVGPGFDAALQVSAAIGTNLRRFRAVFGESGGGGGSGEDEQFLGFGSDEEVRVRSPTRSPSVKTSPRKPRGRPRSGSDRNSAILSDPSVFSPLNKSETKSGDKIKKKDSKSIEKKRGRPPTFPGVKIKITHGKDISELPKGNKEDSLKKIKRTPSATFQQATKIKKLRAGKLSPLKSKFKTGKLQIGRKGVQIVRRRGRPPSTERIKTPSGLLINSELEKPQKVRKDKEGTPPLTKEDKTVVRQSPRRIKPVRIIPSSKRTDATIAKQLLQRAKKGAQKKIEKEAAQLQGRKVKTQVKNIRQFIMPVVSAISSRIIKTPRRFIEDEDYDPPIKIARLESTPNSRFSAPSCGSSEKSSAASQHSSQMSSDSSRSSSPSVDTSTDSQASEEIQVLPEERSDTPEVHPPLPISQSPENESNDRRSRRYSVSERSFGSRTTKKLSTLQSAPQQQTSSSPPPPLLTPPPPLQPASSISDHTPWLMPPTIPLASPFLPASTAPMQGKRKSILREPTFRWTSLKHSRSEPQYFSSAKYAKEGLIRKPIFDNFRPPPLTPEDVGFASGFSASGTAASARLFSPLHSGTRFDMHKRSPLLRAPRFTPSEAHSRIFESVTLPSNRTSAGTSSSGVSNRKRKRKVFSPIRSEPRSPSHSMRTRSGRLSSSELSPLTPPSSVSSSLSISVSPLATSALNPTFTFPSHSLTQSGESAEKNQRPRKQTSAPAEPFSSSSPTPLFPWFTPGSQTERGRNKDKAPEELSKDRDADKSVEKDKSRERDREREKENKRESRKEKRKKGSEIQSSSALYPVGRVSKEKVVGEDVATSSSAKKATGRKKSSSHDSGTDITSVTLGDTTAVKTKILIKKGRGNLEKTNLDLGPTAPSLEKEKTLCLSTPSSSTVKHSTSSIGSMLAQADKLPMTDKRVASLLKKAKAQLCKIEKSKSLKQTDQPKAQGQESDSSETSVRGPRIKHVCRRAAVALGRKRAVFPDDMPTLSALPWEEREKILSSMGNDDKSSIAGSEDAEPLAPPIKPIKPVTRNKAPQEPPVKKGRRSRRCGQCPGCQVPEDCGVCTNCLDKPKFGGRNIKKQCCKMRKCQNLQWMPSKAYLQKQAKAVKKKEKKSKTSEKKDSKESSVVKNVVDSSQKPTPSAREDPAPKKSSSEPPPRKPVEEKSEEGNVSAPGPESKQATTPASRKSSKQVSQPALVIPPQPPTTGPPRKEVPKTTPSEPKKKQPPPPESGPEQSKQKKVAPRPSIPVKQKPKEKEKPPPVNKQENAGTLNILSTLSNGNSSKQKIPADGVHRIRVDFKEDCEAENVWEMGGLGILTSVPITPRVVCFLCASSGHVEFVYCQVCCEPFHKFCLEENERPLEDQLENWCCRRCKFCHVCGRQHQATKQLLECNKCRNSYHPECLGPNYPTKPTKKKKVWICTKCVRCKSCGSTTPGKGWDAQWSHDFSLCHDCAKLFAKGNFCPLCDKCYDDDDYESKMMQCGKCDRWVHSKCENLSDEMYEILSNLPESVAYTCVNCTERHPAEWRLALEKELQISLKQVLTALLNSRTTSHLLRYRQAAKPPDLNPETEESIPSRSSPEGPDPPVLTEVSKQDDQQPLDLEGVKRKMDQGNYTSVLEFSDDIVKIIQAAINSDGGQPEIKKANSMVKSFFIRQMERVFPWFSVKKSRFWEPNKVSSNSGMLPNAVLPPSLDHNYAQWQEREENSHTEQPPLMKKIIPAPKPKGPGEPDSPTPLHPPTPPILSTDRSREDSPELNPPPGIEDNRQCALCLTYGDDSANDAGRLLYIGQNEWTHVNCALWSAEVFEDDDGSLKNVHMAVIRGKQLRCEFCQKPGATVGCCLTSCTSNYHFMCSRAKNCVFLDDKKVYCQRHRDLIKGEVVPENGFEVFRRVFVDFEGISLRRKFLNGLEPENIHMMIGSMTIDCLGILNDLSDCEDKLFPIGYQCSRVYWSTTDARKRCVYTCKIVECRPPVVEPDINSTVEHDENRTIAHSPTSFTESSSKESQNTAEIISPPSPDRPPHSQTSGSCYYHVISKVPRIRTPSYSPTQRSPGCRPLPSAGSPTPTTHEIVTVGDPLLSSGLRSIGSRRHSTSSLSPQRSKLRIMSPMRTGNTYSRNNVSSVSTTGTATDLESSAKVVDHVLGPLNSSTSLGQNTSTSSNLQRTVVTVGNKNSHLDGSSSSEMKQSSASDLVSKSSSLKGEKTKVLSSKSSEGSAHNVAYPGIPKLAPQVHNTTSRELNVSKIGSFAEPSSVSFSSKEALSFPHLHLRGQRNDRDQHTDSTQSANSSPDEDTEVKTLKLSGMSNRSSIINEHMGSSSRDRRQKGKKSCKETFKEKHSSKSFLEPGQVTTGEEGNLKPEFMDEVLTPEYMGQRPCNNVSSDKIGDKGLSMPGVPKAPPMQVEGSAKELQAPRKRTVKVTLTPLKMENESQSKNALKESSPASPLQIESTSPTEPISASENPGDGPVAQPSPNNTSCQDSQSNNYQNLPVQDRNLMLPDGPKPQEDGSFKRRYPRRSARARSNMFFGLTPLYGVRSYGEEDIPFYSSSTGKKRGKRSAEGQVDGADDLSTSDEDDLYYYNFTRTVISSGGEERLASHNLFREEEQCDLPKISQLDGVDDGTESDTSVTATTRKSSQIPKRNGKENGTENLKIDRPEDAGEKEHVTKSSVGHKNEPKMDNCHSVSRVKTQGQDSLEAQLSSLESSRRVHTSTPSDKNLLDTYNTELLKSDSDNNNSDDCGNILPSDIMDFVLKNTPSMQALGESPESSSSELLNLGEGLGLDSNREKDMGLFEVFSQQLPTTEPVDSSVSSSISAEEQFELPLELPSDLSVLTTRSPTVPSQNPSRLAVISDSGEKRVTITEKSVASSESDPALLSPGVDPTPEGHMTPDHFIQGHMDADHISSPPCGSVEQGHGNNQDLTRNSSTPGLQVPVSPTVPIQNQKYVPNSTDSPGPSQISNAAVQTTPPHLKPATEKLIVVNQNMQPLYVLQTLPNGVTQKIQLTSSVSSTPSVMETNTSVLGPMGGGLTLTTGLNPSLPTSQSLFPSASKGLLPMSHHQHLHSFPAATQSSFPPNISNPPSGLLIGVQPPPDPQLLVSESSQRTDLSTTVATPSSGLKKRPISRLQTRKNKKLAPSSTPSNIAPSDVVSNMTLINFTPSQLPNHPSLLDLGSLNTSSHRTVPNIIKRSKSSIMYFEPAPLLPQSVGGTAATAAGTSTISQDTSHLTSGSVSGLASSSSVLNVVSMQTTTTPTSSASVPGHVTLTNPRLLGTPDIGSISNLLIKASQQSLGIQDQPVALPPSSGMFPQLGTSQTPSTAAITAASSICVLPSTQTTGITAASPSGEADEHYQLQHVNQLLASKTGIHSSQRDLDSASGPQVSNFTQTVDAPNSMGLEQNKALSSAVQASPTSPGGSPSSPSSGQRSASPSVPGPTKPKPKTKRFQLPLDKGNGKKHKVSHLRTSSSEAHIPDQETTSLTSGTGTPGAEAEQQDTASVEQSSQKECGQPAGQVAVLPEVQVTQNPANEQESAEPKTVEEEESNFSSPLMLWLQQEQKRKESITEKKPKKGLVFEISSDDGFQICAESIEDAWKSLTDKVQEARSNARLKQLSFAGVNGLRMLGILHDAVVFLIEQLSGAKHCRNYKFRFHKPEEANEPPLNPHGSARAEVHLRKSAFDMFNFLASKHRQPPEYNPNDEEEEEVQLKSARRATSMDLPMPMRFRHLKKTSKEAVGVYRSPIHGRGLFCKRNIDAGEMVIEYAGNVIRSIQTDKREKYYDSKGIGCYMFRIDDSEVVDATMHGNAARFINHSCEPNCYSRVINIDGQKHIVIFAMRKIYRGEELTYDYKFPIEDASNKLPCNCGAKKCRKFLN

Target: Histone-lysine N-methyltransferase 2A (Homo sapiens) (UniProt Q03164)
Experiment: qHTS Fluorescence Polarization Assay for Inhibitors of MLL CXXC domain - DNA interaction
Conditions: MLL-CXXC / FITC-HOXA9 DNA fluorescence polarization; activity change, negative = inhibition: at 115 µM (top of the series)
Procedure, shortened: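 Steps: dispense CXXC domain solution (7 uM) → pin compounds or unlabeled HOX-A9 DNA control → 5 min ambient → add FLSN-HOX-A9 solution (50 nM) → spin → 30 min ambient → fluorescence polarization. Tris pH 7.5/NaCl/DTT/BSA buffer.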
Potency means the concentration at half of the fitted maximal effect.

SMILES	Potency	activity change, negative = inhibition
Cc1ccc(NC(=O)CSc2nnc(CNC(=O)c3ccccc3F)o2)cc1	inconclusive: 1.12 µM [fluorescent, side channel, full curve]	–
COc1ccc(-c2ncccc2O)cc1	–	inactive: -17.1%
CC1CCc2c(sc(NC(=O)COC(=O)c3ccc(O)cc3)c2C#N)C1 (centres undefined)	inconclusive: 7.94 µM [quencher, side channel, single point]	–
O=C(O)c1ccc(N=Nc2c(O)[nH]c3cc(Cl)ccc23)cc1	–	inactive: 147%
O=C(O)C1CC=CCC1C(=O)N1CCN(c2nc(-c3ccccc3)c3ccccc3n2)CC1 (centres undefined)	inconclusive: 5.62 µM [fluorescent, side channel, single point]	–
Cc1cccc(NC(=O)/C(C#N)=C/c2ccccc2Cl)n1	inconclusive: 89.1 µM [inhibitor, single point]	–
N[C@H](Cc1c[nH]c2ccccc12)C(=O)O	–	inactive: -0.664%
CCC(Cc1ccccc1)n1c(=S)[nH]c2ccccc2c1=O (centres undefined)	inconclusive: 0.891 µM [quencher, side channel, full curve, poor fit]	–
NC(=O)SCC(=O)Nc1ccc(Cl)cc1	–	inactive: 20.7%
Cc1ccccc1NC(=O)c1ccc(C)c(S(=O)(=O)Nc2cccnc2)c1	–	inactive: -7.31%
C[C@@H](NC(=O)[C@@H]1Cc2ccccc2CN1)C(=O)Nc1ccc2c(c1)OCCO2	inconclusive: 100 µM [fluorescent, side channel, partial curve, poor fit]	–
Cc1ccc(NC(=O)Cn2c(=O)oc3cc(S(=O)(=O)N4CCC(C)CC4)ccc32)cc1C	inconclusive: 7.94 µM [fluorescent, side channel, full curve]	–
O=C(Cc1ccccc1)Nn1c(O)c(/C=C2\C=Nc3ccccc32)sc1=S	inconclusive: 7.08 µM [fluorescent, side channel, partial curve]	–
CCCOC(=O)c1ccc(OCC(O)CN2CCN(C(=O)c3ccccc3)CC2)cc1 (centres undefined)	–	inactive: -5.53%
CN(C)c1ccc(/C=N/NC(=S)NCc2ccco2)cc1	–	inactive: -3.96%
OCC1NCC(O)C(O)C1O (centres undefined)	–	inactive: -2.24%
CCN(CC)C(=O)Cn1c(C)c(/C=C/c2cc[n+](C)cc2)c2ccccc21	inconclusive: 31.6 µM [fluorescent, side channel, partial curve]	–
O=C(CNC(=O)c1ccccc1Br)N/N=C\c1cc([N+](=O)[O-])cc(Br)c1O	–	inactive: 1.54%
CCCCOC(=O)C1=C(C)Nc2ncnn2C1c1ccc(OC)c(OC)c1OC (centres undefined)	inconclusive: 31.6 µM [fluorescent, side channel, single point]	–

Given as a markdown table: two of the compounds above.

| SMILES | Potency | activity change, negative = inhibition |
| --- | --- | --- |
| C[C@@H](NC(=O)[C@@H]1Cc2ccccc2CN1)C(=O)Nc1ccc2c(c1)OCCO2 | inconclusive: 100 µM [fluorescent, side channel, partial curve, poor fit] | – |
| Cc1ccc(NC(=O)Cn2c(=O)oc3cc(S(=O)(=O)N4CCC(C)CC4)ccc32)cc1C | inconclusive: 7.94 µM [fluorescent, side channel, full curve] | – |
